Data source: PubChem BioAssay AID1259424 (University of Nebraska Medical Center, 2018)
In all, the deposit lists about 14,000 reagents; this is a random part of them. 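Higher correlation or smaller distance means closer resemblance to KSR1 loss; control wells, including KSR1 knockdowns, recur on many plates.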 The record does not give: the time to read-out.

Test: 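Rank knockdowns across the genome by resemblance to the KSR1 depletion profile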 (primary screen)
System: human HCT116 colon cancer cells
Knock-down reagent: siRNA pool against human genes, 50 nM
Detection: 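Six signature mRNAs by branched-DNA multiplex assay, scaled to two housekeeping genes and non-targeting median, log2; matched to mean KSR1 knockdown profile by Pearson correlation and euclidean distance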
Scale: mean correlation with KSR1 profile and KSR1 correlation: higher = expression change more like KSR1 knockdown; mean distance from KSR1 profile: higher = expression change less like KSR1 knockdown

gene | mean correlation with KSR1 profile | mean distance from KSR1 profile | KSR1 correlation, replicate 1 | KSR1 correlation, replicate 2 | KSR1 correlation, replicate 3
RPAP2 | 0.18 | 4.58 | 0.297 | 0.101 | 0.152
SCN4A | -0.146 | 1.29 | 0.2 | -0.206 | -0.0909
SHTN1 | -0.715 | 2.18 | -0.698 | -0.401 | -0.707
MTNR1A | 0.885 | 0.753 | 0.889 | 0.955 | 0.727
CA11 | -0.215 | 2.04 | -0.261 | -0.143 | -0.405
CYP3A5 | -0.0935 | 2.45 | -0.641 | 0.223 | -0.117
MCCC2 | 0.627 | 0.918 | 0.684 | 0.499 | 0.675
MAD2L2 | -0.246 | 3.41 | -0.28 | -0.289 | -0.286
KCNAB3 | -0.331 | 1.45 | -0.482 | -0.555 | -0.0256
ZBTB16 | -0.415 | 3.14 | -0.0466 | -0.128 | 0.249
LARGE1 | 0.365 | 1.69 | 0.254 | 0.437 | 0.354
MGAT3 | 0.114 | 1.67 | 0.0828 | 0.0351 | 0.0583
HSP90AA2P | -0.285 | 1.86 | -0.369 | -0.562 | 0.0645
GRM6 | 0.667 | 2.23 | 0.461 | 0.706 | 0.661
RND3 | 0.0451 | 2.5 | -0.332 | 0.102 | 0.486
CAV3 | -0.216 | 1.88 | -0.112 | -0.161 | -0.346

7 entries from above, ordered by “mean distance from KSR1 profile”, descending:
gene | mean correlation with KSR1 profile | mean distance from KSR1 profile | KSR1 correlation, replicate 1 | KSR1 correlation, replicate 2 | KSR1 correlation, replicate 3
MAD2L2 | -0.246 | 3.41 | -0.28 | -0.289 | -0.286
ZBTB16 | -0.415 | 3.14 | -0.0466 | -0.128 | 0.249
CYP3A5 | -0.0935 | 2.45 | -0.641 | 0.223 | -0.117
CA11 | -0.215 | 2.04 | -0.261 | -0.143 | -0.405
KCNAB3 | -0.331 | 1.45 | -0.482 | -0.555 | -0.0256
MCCC2 | 0.627 | 0.918 | 0.684 | 0.499 | 0.675
MTNR1A | 0.885 | 0.753 | 0.889 | 0.955 | 0.727

Additional entries:
gene | mean correlation with KSR1 profile | mean distance from KSR1 profile | KSR1 correlation, replicate 1 | KSR1 correlation, replicate 2 | KSR1 correlation, replicate 3
SIM1 | 0.551 | 2.13 | 0.624 | 0.444 | 0.48
ACAA2 | -0.16 | 2.17 | -0.325 | -0.147 | -0.221
DNAH11 | 0.22 | 1.68 | 0.469 | 0.0565 | 0.327
IARS1 | -0.301 | 4.52 | -0.481 | -0.207 | -0.172
ABHD17B | -0.851 | 2.78 | -0.799 | -0.323 | -0.492
PDCD1 | -0.565 | 5.18 | -0.516 | -0.624 | -0.561
EIF3FP2 | -0.0029 | 1.51 | -0.375 | -0.241 | 0.298
STAB1 | -0.443 | 1.42 | -0.577 | -0.405 | -0.211
PODXL | 0.774 | 0.78 | 0.821 | 0.862 | 0.705
PCDHB16 | -0.316 | 6.61 | -0.282 | 0.257 | 0.0959
UPB1 | -0.00499 | 1.83 | 0.285 | -0.217 | -0.162
LONRF3 | 0.0549 | 1.68 | 0.171 | 0.207 | -0.0583
AKAP1 | 0.727 | 2.52 | 0.888 | 0.677 | -0.0906
KCNA1 | -0.275 | 1.69 | -0.293 | -0.437 | -0.0797
ABCG4 | 0.805 | 1.41 | 0.798 | 0.72 | 0.606
TP53I11 | -0.139 | 2.38 | -0.108 | -0.127 | -0.281
ST3GAL6 | -0.249 | 2.08 | -0.0524 | -0.401 | -0.196
METTL13 | 0.314 | 1.52 | 0.544 | 0.177 | 0.316
SLIT3 | -0.256 | 1.92 | -0.264 | -0.356 | -0.28
LARP7 | -0.71 | 4.88 | -0.369 | -0.88 | -0.516
GPATCH8 | -0.373 | 2.43 | -0.408 | -0.226 | -0.378
ZKSCAN8 | -0.384 | 2.68 | -0.379 | -0.0584 | -0.45
COQ5 | 0.345 | 2.54 | 0.164 | 0.369 | 0.519
NTM | 0.657 | 4.68 | 0.327 | 0.543 | 0.559
PCYT2 | 0.158 | 1.36 | 0.195 | 0.13 | 0.206
HEATR3 | -0.816 | 2.94 | -0.879 | -0.744 | -0.624
CD33 | 0.119 | 1.59 | 0.328 | -0.272 | 0.211
NPPA | -0.0211 | 1.86 | 0.248 | -0.0895 | -0.244
ARMC8 | -0.164 | 2.53 | -0.141 | -0.332 | -0.266
VSX1 | -0.094 | 2.37 | 0.0872 | -0.0649 | 0.0569
NUBPL | 0.9 | 0.823 | 0.525 | 0.926 | 0.81
TMPRSS2 | -0.304 | 2.43 | 0.0491 | -0.657 | -0.125
DUSP13B | 0.349 | 1.27 | 0.378 | 0.344 | 0.337
TCOF1 | -0.571 | 1.64 | -0.125 | -0.655 | -0.7
